PubChem BioAssay AID686938 – Drosophila RNAi Screening Center | 2013
The screen tested about 23,000 reagents; this is a random part of those with a known target gene and a result. In the full data, 75 (0.33%) are marked active. 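Raw plate signals without normalisation; calls rest on plate z-scores that were not deposited; ratio present for only 364 wells.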 Entries without a mark were called inactive. A plus sign joins genes that one reagent is predicted to hit. Not given: the dose of the treatment.

- Assay: 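Knock-downs reducing store-operated calcium influx in Drosophila cells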 (primary screen)
- System: Drosophila S2R+ cells
- Knock-down reagent: long dsRNA against Drosophila genes, about 0.25 µg dsRNA per well, roughly 10,000 cells
- Duration: 5 days of knock-down before the calcium assay
- Treatment: thapsigargin (SERCA pump blocker) to empty calcium stores; entry signal taken 4 min after adding it
- Measured: 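Per-well fluo-4 fluorescence in two replicates, unnormalised, measured in resting cells and 4 min after store depletion by the SERCA blocker thapsigargin; ratio of the two present in few wells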
- Scale: calcium entry signal: higher = stronger calcium signal after store depletion; entry to resting ratio: higher = more calcium entry relative to resting level; resting calcium signal: higher = higher resting calcium signal
- Call rule: 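Hit if the duplicate-averaged plate z-score for entry over resting signal is under −3; wells with weak total dye signal (Fmax z < −2) or more than 5 off-targets removed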
- Meaning of the calls: active = strongly reduced calcium entry; inactive = no strong reduction

The opening 2 entries as a preview:
gene	PubChem SID	calcium entry signal, replicate 1 (fluorescence units)	calcium entry signal, replicate 2 (fluorescence units)	entry to resting ratio	resting calcium signal, replicate 1 (fluorescence units)	resting calcium signal, replicate 2 (fluorescence units)
p23	SID104194950	3.65e7	5.08e7		1.62e7	2.21e7
CG1077	SID104191938	4.86e7	1.58e7		2.29e7	9.15e6

Main list, repeating the preview:
gene	PubChem SID	calcium entry signal, replicate 1 (fluorescence units)	calcium entry signal, replicate 2 (fluorescence units)	entry to resting ratio	resting calcium signal, replicate 1 (fluorescence units)	resting calcium signal, replicate 2 (fluorescence units)
p23	SID104194950	3.65e7	5.08e7		1.62e7	2.21e7
CG1077	SID104191938	4.86e7	1.58e7		2.29e7	9.15e6
wun	SID104187511	3.25e7	2.64e7		1.52e7	1.28e7
x16	SID104180752	3.72e7	3.33e7		2.17e7	1.55e7
x16	SID104183430	3.54e7			2.02e7	
Muc68E	SID104188938	4.70e7	4.40e7		2.60e7	2.17e7
Klp54D	SID104187242	5.15e7	5.26e7		2.25e7	2.28e7
CG16713	SID104180269	3.66e7	3.36e7		1.65e7	1.66e7
unc-104	SID104187502	3.88e7	4.90e7		1.80e7	2.36e7
CG3939	SID104198290	3.81e7	5.34e7	2	1.87e7	2.04e7
Suv3	SID104192127	3.52e7	5.24e7		1.57e7	3.49e7
asl	SID104192111	3.83e7	4.03e7		1.55e7	1.89e7
CG18542 + CG32939	SID104195134	3.31e7	4.55e7		1.47e7	2.07e7
PolD3	SID104181753	4.56e7			2.33e7	
ETH + asRNA:CR43257	SID104184404	3.98e7	4.62e7		2.12e7	2.14e7
Rga + asRNA:ASTR	SID104192156	5.36e7	3.61e7		2.78e7	1.79e7
Rab3	SID104187315	6.08e7	4.42e7		2.48e7	2.01e7
CG1265	SID104188080	3.90e7	3.07e7		2.13e7	1.52e7
ps	SID104194941	2.47e7	2.34e7		1.38e7	1.29e7
ps	SID104194943	2.60e7	2.71e7		1.36e7	1.47e7
ps	SID104194944	2.50e7	2.27e7		1.54e7	1.31e7
ps	SID104196180	2.83e7	2.11e7		1.82e7	1.22e7
ps	SID104202346	4.70e7	3.58e7		2.55e7	1.68e7
Pi3K68D	SID104191045	3.38e7	2.72e7		2.50e7	1.13e7
CG17544	SID104182416	4.40e7			2.24e7	
fipi	SID104180257	1.81e7	2.44e7		1.18e7	1.44e7
CG7099	SID104182798	4.17e7			2.05e7	
Rcd2	SID104191548	3.50e7	5.72e7		1.87e7	2.71e7
E(spl)m7-HLH	SID104196488	3.09e7	5.25e7		1.74e7	2.09e7
CG1578	SID104199521	2.76e7	2.96e7		1.30e7	1.53e7
Sdb	SID104186064	4.22e7	3.36e7		2.23e7	1.54e7
Sdb	SID104186065	3.72e7	3.61e7		1.86e7	1.66e7
Sdb	SID104186947	3.80e7	3.80e7		1.67e7	1.70e7
CR10032	SID104192291	4.45e7	3.76e7		2.12e7	1.75e7
Mst84Db	SID104192334	3.12e7	2.12e7		1.64e7	1.09e7
Mst84Db	SID104192390	3.37e7	2.40e7		1.77e7	1.19e7
Mst33A	SID104183163	3.64e7	4.26e7		1.79e7	1.82e7
Stt3B	SID104196573	3.80e7	6.69e7		2.05e7	2.65e7
cona	SID104196073	4.40e7	4.29e7		6.18e7	1.90e7
SelR	SID104195863	3.25e7	3.61e7		1.59e7	1.84e7
